PubChem BioAssay AID1159578 – Peter MacCallum Cancer Centre | 2015
Aim: 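Genome-wide hunt for genes controlling movement of lymphatic endothelial cells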 (primary screen). System: human lymphatic endothelial cells. Reagent: siRNA pool against human genes, 40 nM. Duration: 48 h after transfection. Detection: 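Cells stained with dye and imaged after a scratch; covered wound area and nuclei counted, duplicates averaged, migration set against mock wells and turned into a robust z-score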. Reading the numbers: migration robust z-score: higher = faster migration into the scratch; migration relative to mock: higher = more scratch area covered than mock; nuclei per well: higher = more cells in the well. Hit rule: 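Migration changed when robust z exceeds 2 or falls below -2 and mean nuclei number is at least 3300; otherwise not called changed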. Meaning of the calls: active = migration changed; inactive = no migration change, or too few cells.
This is an unselected part of about 18,000 reagents tested. About 1,030 of them (5.7%) count as active. 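Inactive calls also include pools with fewer than 3300 nuclei, whose migration was not assessed.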 Raw values are not corrected between plates. Entries without a mark were called inactive.

target gene,migration robust z-score,migration class with cell-count check,migration relative to mock,"nuclei per well, duplicate mean"
AGR3,1.12,migration z between -2 and 2; enough cells,1.17,5704
NPC1L1,-0.63,migration z between -2 and 2; enough cells,0.73,5005
TTR,-1.45,migration z between -2 and 2; enough cells,0.52,4654
BSDC1,-1.03,migration z between -2 and 2; enough cells,0.62,5840
TSC22D3,2.49 (active),migration z above 2; enough cells,1.52,6117
ZNF76,-2.49 (active),migration z below -2; enough cells,0.24,5260
ZNF696,-1.17,migration z between -2 and 2; enough cells,0.58,6590
S1PR4,2.38 (active),migration z above 2; enough cells,1.27,5314
LIPE,-0.52,migration z between -2 and 2; enough cells,0.71,5422
CDCP1,-1.04,migration z between -2 and 2; enough cells,0.61,4148
POLR2H,-0.2,migration z between -2 and 2; enough cells,0.76,5064
SYNJ2BP,-1.41,migration z between -2 and 2; enough cells,0.52,4158
FIRRM,1.58,migration z between -2 and 2; enough cells,1.29,5582
UPF3B,-0.89,migration z between -2 and 2; enough cells,0.66,3706
WASF3,1.19,migration z between -2 and 2; enough cells,1.19,7412
RNASEK,-0.07,migration z between -2 and 2; enough cells,0.86,6346
PMS2P5,0.44,migration z between -2 and 2; enough cells,1,5666
RANBP2,-0.21,migration z between -2 and 2; enough cells,0.76,5478
LINC00303,-0.2,migration z between -2 and 2; enough cells,0.84,5026
ISLR,-0.66,migration z between -2 and 2; enough cells,0.72,4596
ACBD3,-1.7,migration z between -2 and 2; enough cells,0.46,5154
PTCHD3,-0.19,migration z between -2 and 2; enough cells,0.84,5990
RRAGB,1.01,migration z between -2 and 2; enough cells,1,5054
PDE8A,1.19,migration z between -2 and 2; enough cells,1.04,4552
ANXA6,-0.28,migration z between -2 and 2; enough cells,0.82,5652
CIAO3,-0.04,migration z between -2 and 2; enough cells,0.88,4550
NGF,0.88,migration z between -2 and 2; enough cells,0.98,7035
OR13C9,1.26,migration z between -2 and 2; enough cells,1.22,5624
TRPT1,-1.05,migration z between -2 and 2; enough cells,0.61,5796
ZNF280D,1.11,migration z between -2 and 2; enough cells,1.18,5631
SCNM1,-0.46,migration z between -2 and 2; enough cells,0.76,5488
TNKS2,0.18,migration z between -2 and 2; enough cells,0.84,6396
GP6,-0.8,migration z between -2 and 2; enough cells,0.65,5954
TES,-2.45 (active),migration z below -2; enough cells,0.24,4128
SPATA25,-1.29,migration z between -2 and 2; enough cells,0.54,4362
CEP85,-1.11,migration z between -2 and 2; enough cells,0.6,6063
CNIH3,-0.02,migration z between -2 and 2; enough cells,0.88,4868
PFKFB4,-0.02,migration z between -2 and 2; enough cells,0.8,5055
MMP24,0.26,migration z between -2 and 2; enough cells,0.85,5256
OSER1,0.17,migration z between -2 and 2; enough cells,0.93,7336
GJA4,-1.53,migration z between -2 and 2; enough cells,0.51,5522
RAI2,-1.92,migration z between -2 and 2; enough cells,0.39,3665
MIR1915HG,1.02,migration z between -2 and 2; enough cells,1.15,6242
FRG2,-1.79,migration z between -2 and 2; enough cells,0.42,5484
SIGLEC5,-0.15,migration z between -2 and 2; enough cells,0.85,4971
TRPM6,1.22,migration z between -2 and 2; enough cells,1.04,6484
ME1,0.88,migration z between -2 and 2; enough cells,0.98,6254
GANAB,0.18,migration z between -2 and 2; enough cells,0.84,5172
GNAL,-1.29,migration z between -2 and 2; enough cells,0.55,5112
RNF7,0.9,migration z between -2 and 2; enough cells,0.98,6448
MANBA,0.5,migration z between -2 and 2; enough cells,0.9,5584
MAML2,-0.46,migration z between -2 and 2; enough cells,0.72,5746
KANSL1L,0.1,migration z between -2 and 2; enough cells,0.9,6148
PIR,0.75,migration z between -2 and 2; enough cells,0.95,4698
SH2D1B,0.84,migration z between -2 and 2; enough cells,1.1,6470
SON,-2.19 (active),migration z below -2; enough cells,0.32,4094
TRIM14,0.29,migration z between -2 and 2; enough cells,0.86,4778
